# PubChem BioAssay AID1671195, Yale University, 2021
# Test: 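Knockdowns that increase or decrease uptake of fluorescent LDL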 (primary screen)
# Cells: human Huh7 hepatoma cells
# Reagent: siRNA pool against human genes, 18 nM
# Timing: about 2 to 2.5 days of knockdown, then 8 h LDL uptake
# Treatment: DiI-labelled LDL at 30 µg/ml for 8 h, in lipoprotein-deficient serum medium
# Detection: 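Fluorescent LDL signal imaged in cells, scaled to the plate median, robust z-score for each replicate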
# Reading the numbers: robust z-score: higher = more LDL uptake after knockdown
# Rule for the call: 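Active when two or more replicates show a robust z-score above 2 or below -2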
# This is a random part of about 22,000 reagents. In the full data, about 1,510 (6.9%) are marked active. 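Active includes knockdowns raising or lowering LDL uptake; positive z-scores mean more uptake, negative mean less.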 A number with no mark means an inactive call. Reagent sequences are not shown.
Gene,PubChem SID,"robust z-score, replicate 1","robust z-score, replicate 2","robust z-score, replicate 3"
LDLRAD4,SID442898411,-0.878,0.24,-0.848
CCDC82,SID442887307,0.737,0.87,1.22
PLPP5,SID442887708,1.16,0.586,0.828
EBLN3P,SID442899995,-0.764,-0.983,-0.342
DCDC1,SID442889126,3.21,-0.54,-0.848
DCDC1,SID442893091,0.172,-0.0634,0.159
INPP5A,SID442900916,-1.11,-0.552,-0.818
DENND5B,SID442899304,-0.462,-0.221,-1.13
SUB1,SID442902443,-0.867,-1.07,-1.29
FEM1C,SID442892877,-0.0249,-0.604,0.974
SMOC2,SID442902181,-0.77,-0.943,-1.36
RPL3L,SID442897253,-0.519,0.137,-0.712
AEN,SID442902065,-1.16,-0.883,-0.972
BRD3,SID442895372,0.555,-0.681,-0.364
GSKIP,SID442893717,0.312,-0.147,-0.109
PACS2,SID442884614,1.04,-0.67,6.33
SUB1P1,SID442899325,-0.366,-0.84,-0.609
PLD1,SID442900801,-1.07,-0.612,-0.743
LOC440936 (retired record),SID442887290,0.363,1.1,1.37
B3GALNT1,SID442898458,-0.035,-1.1,-0.368
SSH1,SID442886826,1.19,0.768,1.21
ANTKMT,SID442895385,-0.283,0.0882,-0.298
CLPSL2,SID442896877,-0.543,-0.408,-0.0147
DNAJC6,SID442894019,0.513,-0.437,-0.128
ODF2,SID442890740,0.113,0.996,0.0154
GSTP1,SID442884988,1.71,2.24,1.28
PDXP,SID442901612,-1.26,-0.64,-0.878
HEG1,SID442892740,0.224,-0.276,0.441
SP8,SID442883644,2.85 (active),2.21,2.49
TOB1-AS1,SID442900063,-0.691,-0.818,-0.611
RPSA,SID442890848,0.553,0.472,0.0638
MEOX1,SID442884726,1.89,2.55,1.29
CALM2,SID442885228,1.45,1.32,2.06
LOC440599 (retired record),SID442904501,-1.76,-1.71,-1.54
NEIL1,SID442886523,1.14,0.787,1.48
ZNF816,SID442903130,-1.17,-1.35,-1.14
GABARAPL2,SID442889384,0.757,-0.072,1.02
LOC388065 (retired record),SID442894608,-0.301,0.13,-0.0736
MTX1,SID442890364,0.359,0.581,0.34
KIAA0319L,SID442894812,-0.00787,-0.12,-0.18
NAP1L3,SID442890453,0.786,0.548,-0.0874

Look-ups from above.
For “robust z-score, replicate 2”, ODF2 [SID442890740] shows 0.996
Under “robust z-score, replicate 1”, AEN [SID442902065] shows -1.16
For “robust z-score, replicate 3”, ANTKMT [SID442895385] has -0.298
Value of LOC440936 (retired record) [SID442887290] in “robust z-score, replicate 2”: 1.1
Result of SUB1 [SID442902443] under “robust z-score, replicate 2”: -1.07

Additional reagents:
Gene,PubChem SID,"robust z-score, replicate 1","robust z-score, replicate 2","robust z-score, replicate 3"
SGMS1,SID442904296,-1.49,-1.75,-1.47
LOC440309 (retired record),SID442890435,-0.0755,1.62,-0.292
TTL,SID442888362,-0.313,0.931,1.58
IMPDH1P1,SID442898355,-0.301,-0.448,-0.719
CELF6,SID442893833,0.566,-0.284,-0.265
ACTR3B,SID442897422,0.144,-0.839,-0.456
PRSS30P,SID442903960,-1.74,-1.08,-1.53
DCK,SID442888768,1.25,0.634,0.113
LOC201484 (retired record),SID442893131,0.376,0.27,-0.392
ETFRF1,SID442891210,0.454,0.348,0.147
JAZF1,SID442900893,-0.826,-0.943,-0.696
LINC00955,SID442884709,1.71,2.2,1.88
FAR2,SID442901047,-1.01,0.0272,-1.54
LINC01101,SID442903597,-1.26,-1.14,-1.61
CSE1L,SID442884044,1.34 (active),2.54,2.22
TAX1BP1,SID442895002,-0.535,-0.027,0.194
MMP23B,SID442893635,-0.832,-0.165,1.08
RIPK1,SID442889106,1.05,0.415,0.374
SH3BP2,SID442894312,0.795,-1.06,0.116
MPDU1,SID442888712,-0.253,1.72,0.563
GALK2,SID442901713,-0.691,-0.911,-1.23
CHCHD1,SID442903312,-1.72,-1.04,-1.05
H4C6,SID442893842,-0.000865,0.127,-0.11
ARAP2-AS1,SID442895502,-0.0438,-0.452,-0.0297
QRICH1,SID442893815,-0.0864,0.336,-0.227
BTF3P10,SID442889928,0.637,0.33,0.494
ZNF442,SID442899613,-0.754,-0.544,-0.632
